Results deposited as PubChem BioAssay AID1259425 (University of Nebraska Medical Center, 2018)
Aim: 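Compare each knockdown with KSR1 silencing using changes in marker transcripts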 (primary screen). Cell system: HCT116 human colon cancer cells. Reagents: siRNA pool against human genes, 50 nM siRNA. Detection: 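After 50 nM siRNA pool, branched-DNA assay measures six marker transcripts per well, minus blank, normalised to the geometric mean of two housekeeping transcripts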. Direction: BNIP3L mRNA: higher = more BNIP3L transcript after knockdown; NDRG1 mRNA: higher = more NDRG1 transcript after knockdown; BNIP3 mRNA: higher = more BNIP3 transcript after knockdown; ALDOC mRNA: higher = more ALDOC transcript after knockdown; ACSL5 mRNA: higher = more ACSL5 transcript after knockdown.
Here is a random part of about 14,000 reagents. A reagent listed more than once was tested more than once; the source does not tell the runs apart. Not given: the time to read-out.

target gene | BNIP3L mRNA, set 1 | NDRG1 mRNA, set 1 | BNIP3 mRNA, set 1 | ALDOC mRNA, set 1 | ACSL5 mRNA, set 1
HAL (histidine ammonia-lyase) | 0.105 | 0.3 | 0.193 | 0.0159 | 0.154
DHX29 (DExH-box helicase 29) | 0.085 | 0.301 | 0.372 | 0.0137 | 0.285
ECD (ecdysoneless cell cycle regulator) | 0.175 | 0.0977 | 0.202 | 0.00788 | 0.254
THRA (thyroid hormone receptor alpha) | 0.0892 | 0.296 | 0.228 | 0.0167 | 0.131
RASAL3 (RAS protein activator like 3) | 0.122 | 0.23 | 0.317 | 0.0226 | 0.151
MMP21 (matrix metallopeptidase 21) | 0.103 | 0.142 | 0.32 | 0.0314 | 0.0773
TRMT1L (tRNA methyltransferase 1L) | 0.136 | 0.447 | 0.42 | 0.0507 | 0.134
FGF3 (fibroblast growth factor 3) | 0.0577 | 0.119 | 0.258 | 0.0162 | 0.133
KRT4 (keratin 4) | 0.0896 | 0.152 | 0.308 | 0.0278 | 0.0928
PRRG3 (proline rich and Gla domain 3) | 0.182 | 0.432 | 0.333 | 0.0764 | 0.243
ZNF350 (zinc finger protein 350) | 0.0637 | 0.303 | 0.31 | 0.0237 | 0.156
HLA-DRB3 (major histocompatibility complex, class II, DR beta 3) | 0.0596 | 0.148 | 0.22 | 0.0198 | 0.135
CKMT1B (creatine kinase, mitochondrial 1B) | 0.191 | 0.133 | 0.304 | 0.0164 | 0.221
OR2K2 (olfactory receptor family 2 subfamily K member 2) | 0.102 | 0.277 | 0.617 | 0.0531 | 0.198
HOPX (HOP homeobox) | 0.0949 | 0.132 | 0.266 | 0.046 | 0.0978
CCDC22 (CCC complex scaffolding subunit CCDC22) | 0.152 | 0.647 | 0.309 | 0.0234 | 0.395
ZNF436 (zinc finger protein 436) | 0.0657 | 0.163 | 0.228 | 0.0302 | 0.173
GMPS (guanosine monophosphate synthase) | 0.209 | 0.222 | 0.281 | 0.0176 | 0.155
PELP1 (proline, glutamate and leucine rich protein 1) | 0.0852 | 0.0848 | 0.228 | 0.0137 | 0.123
SLCO1A2 | 0.0718 | 0.123 | 0.248 | 0.00997 | 0.0791
ARGLU1 (arginine and glutamate rich 1) | 0.0741 | 0.275 | 0.182 | 0.0506 | 0.163
NARS2 (asparaginyl-tRNA synthetase 2, mitochondrial) | 0.0651 | 0.187 | 0.344 | 0.0273 | 0.138
TEAD2 (TEA domain transcription factor 2) | 0.111 | 0.246 | 0.183 | 0.0272 | 0.126
FZD3 (frizzled class receptor 3) | 0.181 | 0.223 | 0.213 | 0.0371 | 0.229
SEPTIN11 (septin 11) | 0.0833 | 0.157 | 0.404 | 0.0119 | 0.262

Next part, starting with the last 3 of the part before.
target gene | BNIP3L mRNA, set 1 | NDRG1 mRNA, set 1 | BNIP3 mRNA, set 1 | ALDOC mRNA, set 1 | ACSL5 mRNA, set 1
TEAD2 (TEA domain transcription factor 2) | 0.111 | 0.246 | 0.183 | 0.0272 | 0.126
FZD3 (frizzled class receptor 3) | 0.181 | 0.223 | 0.213 | 0.0371 | 0.229
SEPTIN11 (septin 11) | 0.0833 | 0.157 | 0.404 | 0.0119 | 0.262
NT5E (5'-nucleotidase ecto) | 0.0815 | 0.395 | 0.226 | 0.0228 | 0.174
IER3IP1 (immediate early response 3 interacting protein 1) | 0.173 | 0.167 | 0.108 | 0.0437 | 0.141
PNLIPRP2 (pancreatic lipase related protein 2 (gene/pseudogene)) | 0.317 | 0.161 | 0.383 | 0.0617 | 0.221
TBC1D10A (TBC1 domain family member 10A) | 0.266 | 0.456 | 0.313 | 0.0794 | 0.383
GALT (galactose-1-phosphate uridylyltransferase) | 0.208 | 0.294 | 0.454 | 0.0569 | 0.63
IFNB1 (interferon beta 1) | 0.114 | 0.598 | 0.247 | 0.0135 | 0.163
EXPH5 (exophilin 5) | 0.173 | 0.116 | 0.394 | 0.018 | 0.188
NOP58 (NOP58 ribonucleoprotein) | 0.17 | 0.258 | 0.508 | 0.0609 | 0.201
NAALAD2 (N-acetylated alpha-linked acidic dipeptidase 2) | 0.0856 | 0.148 | 0.25 | 0.0365 | 0.132
ITGA6 (integrin subunit alpha 6) | 0.0341 | 0.209 | 0.335 | 0.0368 | 0.128
POMP (proteasome maturation protein) | 0.694 | 2.76 | 0.506 | 0.093 | 0.458
TOP2A (DNA topoisomerase II alpha) | 0.101 | 0.299 | 0.253 | 0.041 | 0.172
NUBP1 (NUBP iron-sulfur cluster assembly factor 1, cytosolic) | 0.0741 | 0.152 | 0.237 | 0.0111 | 0.179
DENND11 (DENN domain containing 11) | 0.0656 | 0.225 | 0.318 | 0.0149 | 0.216
SNRNP25 (small nuclear ribonucleoprotein U11/U12 subunit 25) | 0.0771 | 0.21 | 0.334 | 0.0398 | 0.227
JPT1 (Jupiter microtubule associated homolog 1) | 0.0555 | 0.089 | 0.228 | 0.0181 | 0.0994
JPT1 (Jupiter microtubule associated homolog 1) | 0.0522 | 0.11 | 0.204 | 0.0202 | 0.0813
AS3MT (arsenite methyltransferase) | 0.192 | 0.227 | 0.356 | 0.0953 | 0.632
SACK1E (scaffolding CK1 anchoring protein E) | 0.113 | 0.255 | 0.355 | 0.0246 | 0.163
YWHAE | 0.0372 | 0.729 | 0.375 | 0.0117 | 0.231
PTGIS (prostaglandin I2 synthase) | 0.106 | 0.25 | 0.257 | 0.0445 | 0.288
TRIM54 (tripartite motif containing 54) | 0.0856 | 0.138 | 0.198 | 0.0178 | 0.151
PPP4R3A (protein phosphatase 4 regulatory subunit 3A) | 0.036 | 0.15 | 0.21 | 0.0165 | 0.141
EDRF1 (erythroid differentiation regulatory factor 1) | 0.153 | 0.179 | 0.643 | 0.0289 | 0.223
CACNG7 (calcium voltage-gated channel auxiliary subunit gamma 7) | 0.12 | 0.214 | 0.115 | 0.0102 | 0.131
